# Taken from: PubChem BioAssay AID1159578 (Peter MacCallum Cancer Centre, 2015)
# Assay: 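Knock-downs that alter how fast lymphatic endothelial cells migrate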 (primary screen)
# System: human lymphatic endothelial cells
# Reagents: siRNA pool against human genes, 40 nM
# Time to read-out: 48 h after transfection
# Measured: 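Cells stained with dye and imaged after a scratch; covered wound area and nuclei counted, duplicates averaged, migration set against mock wells and turned into a robust z-score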
# Reading the numbers: migration robust z-score: higher = faster migration into the scratch; nuclei per well: higher = more cells in the well
# Call rule: 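Migration changed when robust z exceeds 2 or falls below -2 and mean nuclei number is at least 3300; otherwise not called changed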
# Calls: active = migration changed; inactive = no migration change, or too few cells
# This is one part, drawn at random, of about 18,000 reagents. Over the whole deposit, about 1,030 (5.7%) got an active call. 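Inactive calls also include pools with fewer than 3300 nuclei, whose migration was not assessed.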 Raw values vary from plate to plate and are shown uncorrected. Unmarked entries are inactive. Reagents against one gene are numbered here. Not all columns of the deposit are shown.
gene,reagent no.,migration robust z-score,"nuclei per well, duplicate mean"
CLEC4A (C-type lectin domain family 4 member A),1,0.25,5610
TTPAL (alpha tocopherol transfer protein like),1,-0.86,5544
NHLRC3 (NHL repeat containing 3),1,1.2,5525
RPL11 (ribosomal protein L11),1,-1.79,5084
GPR162 (G protein-coupled receptor 162),1,-0.26,5841
PRSS16 (serine protease 16),1,0.88,6056
PPP2R5A (protein phosphatase 2 regulatory subunit B'alpha),1,0.31,5200
SEMA5B (semaphorin 5B),1,0.68,6992
KLHDC8A (kelch domain containing 8A),1,-1.2,3994
SMYD4 (SET and MYND domain containing 4),1,-1.42,6393
MAP3K15 (mitogen-activated protein kinase kinase kinase 15),1,-1.32,4592
USP46 (ubiquitin specific peptidase 46),1,1.01,5400
TBR1 (T-box brain transcription factor 1),1,0.78,4398
FCRL2 (Fc receptor like 2),1,-3.71 (active),5620
"PPM1D (protein phosphatase, Mg2+/Mn2+ dependent 1D)",1,1.4,4510
FCMR (Fc mu receptor),1,-0.38,4963
ABT1 (activator of basal transcription 1),1,0.1,7188
POLR2I (RNA polymerase II subunit I),1,0.46,4763
DCDC2 (doublecortin domain containing 2),1,0.88,5820
DGCR2 (DiGeorge syndrome critical region gene 2),1,-0.12,5542
NTN1 (netrin 1),1,0.65,4922
COCH (cochlin),1,0.49,6256
DOK5 (docking protein 5),1,0.97,5636
YTHDF3 (YTH N6-methyladenosine RNA binding protein F3),1,-0.28,4429
AMOTL2 (angiomotin like 2),1,0.62,6496
"ABRAXAS1 (abraxas 1, BRCA1 A complex subunit)",1,-1.81,7179

Individual results from above:
NTN1 (netrin 1), nuclei per well, duplicate mean → 4922
Result for PRSS16 (serine protease 16) under “migration robust z-score”: 0.88
ABRAXAS1 (abraxas 1, BRCA1 A complex subunit), nuclei per well, duplicate mean: 7179
Result for AMOTL2 (angiomotin like 2) under “migration robust z-score”: 0.62

More reagents follow.
gene,reagent no.,migration robust z-score,"nuclei per well, duplicate mean"
GPRC5D (G protein-coupled receptor class C group 5 member D),1,-1.22,6186
GPR55 (G protein-coupled receptor 55),1,0.29,6272
"RTRAF (RNA transcription, translation and transport factor)",1,-0.24,4804
NCAPG2 (non-SMC condensin II complex subunit G2),1,0.18,6057
TMEM244 (transmembrane protein 244),1,-0.62,7251
FOXD4L3 (forkhead box D4 like 3),1,1.09,5162
FOXD4L3 (forkhead box D4 like 3),2,1.37,5702
MAOB (monoamine oxidase B),1,0.1,5428
BPHL (biphenyl hydrolase like),1,0.29,7532
"ST3GAL6 (ST3 beta-galactoside alpha-2,3-sialyltransferase 6)",1,-0.91,5545
CSMD1 (CUB and Sushi multiple domains 1),1,-0.94,5636
ZC2HC1A (zinc finger C2HC-type containing 1A),1,-0.02,4782
SLC1A5,1,-0.27,6556
DYM (dymeclin),1,0.16,4306
NTAQ1 (N-terminal glutamine amidase 1),1,-0.64,6762
CERK (ceramide kinase),1,-0.57,4525
TLR3 (toll like receptor 3),1,-0.78,4512
PTPN4 (protein tyrosine phosphatase non-receptor type 4),1,0.39,4597
PPDPFL,1,0.48,6652
UPK2 (uroplakin 2),1,-0.57,5531
FAM47B (family with sequence similarity 47 member B),1,-1.77,3419
SLC33A1,1,0.46,3912
CRIP3 (cysteine rich protein 3),1,1.02,6318
SATL1 (spermidine/spermine N1-acetyl transferase like 1),1,1.25,6234
IRAK3 (interleukin 1 receptor associated kinase 3),1,-0.78,3509
BCL2L12 (BCL2 like 12),1,-1.56,4798
LGR6 (leucine rich repeat containing G protein-coupled receptor 6),1,-0.03,5848
PSMA2 (proteasome 20S subunit alpha 2),1,-2.08 (active),5400
ZNF816 (zinc finger protein 816),1,1.44,6724
TNRC18 (trinucleotide repeat containing 18),1,-0.2,6252
C3 (complement C3),1,-0.43,5002
